Results taken from paper PMC3435311.

Target: T1, rice PDI-like protein 1-1 (PDIL1-1) (rice) (UniProt Q53LQ0)
T1 sequence: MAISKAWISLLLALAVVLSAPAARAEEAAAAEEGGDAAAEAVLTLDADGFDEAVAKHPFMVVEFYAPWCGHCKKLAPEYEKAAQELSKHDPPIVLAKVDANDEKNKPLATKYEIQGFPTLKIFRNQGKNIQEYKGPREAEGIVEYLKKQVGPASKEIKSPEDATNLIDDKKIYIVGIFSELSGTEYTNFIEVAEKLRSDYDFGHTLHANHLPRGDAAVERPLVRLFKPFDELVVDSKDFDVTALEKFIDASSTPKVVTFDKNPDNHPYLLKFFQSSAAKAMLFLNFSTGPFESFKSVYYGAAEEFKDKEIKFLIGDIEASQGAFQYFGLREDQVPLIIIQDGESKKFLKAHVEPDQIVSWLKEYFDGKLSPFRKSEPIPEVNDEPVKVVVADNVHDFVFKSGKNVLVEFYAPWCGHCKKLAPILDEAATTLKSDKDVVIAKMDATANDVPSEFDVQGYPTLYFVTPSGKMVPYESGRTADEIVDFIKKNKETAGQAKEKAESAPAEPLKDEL
Experiment: two-hybrid; pGBKT7-PDIL1-1 (BD) co-introduced with rice CP43 homologs in pGADT7 (AD) into AH109 yeast; plated on Leu-/Trp- and Leu-/Trp-/His- (5 mM 3-AT), incubated for 4 days

| binding | Substance |
| --- | --- |
| no binding | rice papain-like cysteine protease XBCP3 |
| no binding | oryzain α (rice) |
| no binding | oryzain β (rice) |

No constants are given. Whether binding was seen depends on the method and setting.
